Test results: US4255585A, “Benzoheterocyclic derivatives of phenoxyacetic acid” (Centre European de Recherches Pharmacologique, priority 1975, dated 1981)

Assay: in vivo
Settings: mouse, po, male Swiss C.D. mice, per os, mortality after 48 hours, read-out: LD 50 per os
Method: The three compounds were administered in the usual way to lots of 10 male mice (Swiss C.D.) of average weight 20 g. Mortality was assessed after 48 hours for toxicity per os.

## NS(=O)(=O)c1cc(C(=O)O)c(NCc2ccco2)cc1Cl [furosemide, reference compound]
  LD50 at 48 h: 1120 mg/kg
